Laboratory results published in PMC6499106, “The CXCR4-LASP1-eIF4F Axis Promotes Translation of Oncogenic Proteins in Triple-Negative Breast Cancer Cells” (Frontiers in Oncology, 2019).
Results are given in words; binding and its absence hold for the method and conditions named. For some assays here: Binding seen in cells or lysates may run through a third protein. Some entries that bind do so weakly or less than the wild type. For some assays here: Where a sequence is shown, tags or fusion partners need not be part of it. One block for each molecule: values may come before it.

The chains behind the UniProt entries cited, without tags or fusion partners.
UniProt P60842: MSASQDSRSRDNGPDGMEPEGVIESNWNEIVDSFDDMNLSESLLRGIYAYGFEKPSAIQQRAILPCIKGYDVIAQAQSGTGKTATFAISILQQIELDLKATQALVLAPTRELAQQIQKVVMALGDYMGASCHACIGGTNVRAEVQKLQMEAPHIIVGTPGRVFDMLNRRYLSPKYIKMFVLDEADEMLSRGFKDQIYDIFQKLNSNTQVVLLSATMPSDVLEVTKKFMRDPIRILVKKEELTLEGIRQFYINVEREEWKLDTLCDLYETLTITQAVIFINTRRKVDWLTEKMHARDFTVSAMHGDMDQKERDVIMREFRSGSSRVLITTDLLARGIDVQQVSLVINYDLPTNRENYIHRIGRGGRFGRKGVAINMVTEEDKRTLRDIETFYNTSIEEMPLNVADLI
UniProt P23588: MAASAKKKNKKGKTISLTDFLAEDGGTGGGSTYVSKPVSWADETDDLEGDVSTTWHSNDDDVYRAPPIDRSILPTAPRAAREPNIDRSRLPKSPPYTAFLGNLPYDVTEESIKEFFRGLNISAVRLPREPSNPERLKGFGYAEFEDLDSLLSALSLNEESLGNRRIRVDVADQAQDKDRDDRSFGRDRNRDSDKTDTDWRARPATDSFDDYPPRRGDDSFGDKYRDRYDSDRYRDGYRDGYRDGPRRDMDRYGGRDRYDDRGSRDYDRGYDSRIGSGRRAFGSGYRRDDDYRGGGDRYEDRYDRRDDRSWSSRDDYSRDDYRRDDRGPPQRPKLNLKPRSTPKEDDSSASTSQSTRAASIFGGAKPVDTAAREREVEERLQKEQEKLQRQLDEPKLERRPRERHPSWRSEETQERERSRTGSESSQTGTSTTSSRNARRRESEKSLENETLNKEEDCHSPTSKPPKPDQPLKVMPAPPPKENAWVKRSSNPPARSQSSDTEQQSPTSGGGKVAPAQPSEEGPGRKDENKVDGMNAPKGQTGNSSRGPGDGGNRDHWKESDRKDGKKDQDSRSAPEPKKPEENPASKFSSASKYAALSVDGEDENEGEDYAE

Key:
[1] = biological target: T1, GST-LASP1 (human) (UniProt Q14847); assay: pull-down; 1.5 nmoles GST-LASP1 on glutathione agarose beads with 1 mg 231S lysate in Co-IP buffer, 2 h at 4°C; for eIF4A with or without exogenous 2 mM ATP and 3 mM MgCl2; Western blot; only the target purified
T1 sequence: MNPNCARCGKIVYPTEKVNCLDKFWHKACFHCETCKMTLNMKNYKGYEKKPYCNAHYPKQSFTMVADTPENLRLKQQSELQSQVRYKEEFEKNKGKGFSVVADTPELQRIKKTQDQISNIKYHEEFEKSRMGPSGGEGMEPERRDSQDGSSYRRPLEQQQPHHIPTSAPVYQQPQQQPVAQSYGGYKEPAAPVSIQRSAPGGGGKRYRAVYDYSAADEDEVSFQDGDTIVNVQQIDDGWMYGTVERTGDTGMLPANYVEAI

[2] = biological target: T1, GST-LASP1 (human); assay: pull-down; GST-LASP1 eluted from the beads, mixed in solution in equimolar amounts with purified eIF4A or eIF4B in 1 mL Co-IP buffer overnight at 4°C, complexes re-captured with glutathione agarose beads for 1 h at 4°C; Western blot; both purified
[3] = biological target: T1, GST-LASP1 (human); assay: pull-down; 1.5 nmoles GST-LASP1 on glutathione beads in 1 mL Co-IP buffer with increasing amounts of purified recombinant eIF4A or eIF4B, overnight at 4°C; Western blot; both purified
[4] = biological target: Eukaryotic initiation factor 4A (eIF4A1), endogenous in 231S cells (human (endogenous in 231S, MDA-MB-231)) (UniProt P60842); assay: co-IP; endogenous proteins from 1 mg 231S lysate, cells serum-starved 1 h and stimulated with 10-20 nM CXCL12 over time; IP with eIF4A1, eIF4B or LASP1 antibody on protein G magnetic beads, 2 h at 4°C; Co-IP buffer (50 mM Tris pH 8.0, 100 mM NaCl, 0.1% IGEPAL CA-630, 0.1% deoxycholate, 5 mM EDTA); Western blot
[5] = biological target: Eukaryotic initiation factor 4B (eIF4B), endogenous in 231S cells (human (endogenous in 231S, MDA-MB-231)) (UniProt P23588); assay: as above

binding [1]: binds
Molecule: Eukaryotic initiation factor 4A (eIF4A1), endogenous in 231S cells (from UniProt P60842 1-406)

binding [2]: binds | binding [3]: binds
Molecule: Purified recombinant eIF4A (from UniProt P60842 1-406)

binding [4]: binds | binding [5]: binds
B1: LIM and SH3 Protein 1 (LASP1), endogenous in 231S cells (natural protein, human (endogenous in 231S, MDA-MB-231), UniProt Q14847 1-261, looked up)
chain: MNPNCARCGKIVYPTEKVNCLDKFWHKACFHCETCKMTLNMKNYKGYEKKPYCNAHYPKQSFTMVADTPENLRLKQQSELQSQVRYKEEFEKNKGKGFSVVADTPELQRIKKTQDQISNIKYHEEFEKSRMGPSGGEGMEPERRDSQDGSSYRRPLEQQQPHHIPTSAPVYQQPQQQPVAQSYGGYKEPAAPVSIQRSAPGGGGKRYRAVYDYSAADEDEVSFQDGDTIVNVQQIDDGWMYGTVERTGDTGMLPANYVEAI
notes: LIM and SH3 protein 1 (LASP1), endogenous in human 231S breast cancer cells; source: endogenous, 231S (MDA-MB-231 sorted for high CXCR4) cells, in lysate or in situ
